# Results reported in the supplement of paper PMC11348887.
# Where a name gives a salt, the structure may show the parent alone. Some of the results follow. Most entries show no effect beyond the scatter of the controls.
# Tests used:
# Details in all cases: 5 µM; treatment: days 7-14 after plating, readout day 21
# [1] = tested on: hPSC-derived cortical neurons (WA09); assay: nucleus area z-score vs screen plate; higher = larger nuclei (more mature)
# [2] = tested on: hPSC-derived cortical neurons (WA09); assay: total neurite length per nucleus (MAP2) z-score; higher = more neurite growth
# [3] = tested on: hPSC-derived cortical neurons (WA09); assay: nucleus roundness z-score vs screen plate; higher = rounder nuclei (more mature)
# [4] = tested on: hPSC-derived cortical neurons (WA09); assay: KCl-induced FOS+/EGR-1+ double-positive nuclei fraction z-score (KCl minus unstimulated); higher = stronger activity-induced IEG response
Structure (SMILES),nucleus area z-score [1],total neurite length per nucleus (z-score) [2],nucleus roundness z-score [3],KCl-induced FOS+/EGR-1+ double-positive nuclei fraction z-score [4]
Oc1ccc(Nc2nc(-c3ccc(Cl)cc3)cs2)cc1,-1.12,-0.101,0.163,-0.164
COc1c(C)c2c(c(O)c1C/C=C(\C)CCC(=O)OCCN1CCOCC1)C(=O)OC2 [Mycophenolate Mofetil],-0.21,0.645,0.573,-0.162
NC(=O)c1ncn([C@@H]2O[C@H](CO)[C@@H](O)[C@H]2O)n1 [Ribavirin],-0.681,-0.15,-0.255,0.653
CCCNC(C)C(=O)Nc1c(C)csc1C(=O)OC (centres undefined) [Articaine HCl],-0.163,0.0295,-0.092,-0.0258
Clc1ccc(C(c2ccccc2Cl)C(Cl)Cl)cc1 (centres undefined) [Mitotane],0.489,0.319,-0.542,0.106
CC(=O)Nc1cccc(-n2c(=O)n(C3CC3)c(=O)c3c(Nc4ccc(I)cc4F)n(C)c(=O)c(C)c32)c1,-0.189,-0.488,-0.631,-1.08
Oc1ccc(O)cc1 [Hydroquinone],-0.0842,0.0264,0.239,0.409
c1ccc(-c2ccc(C(c3ccccc3)n3ccnc3)cc2)cc1 (centres undefined) [Bifonazole],-0.721,-1.02,-1.62,1.43
O=C(Nc1c[nH]nc1-c1nc2ccc(CN3CCOCC3)cc2[nH]1)NC1CC1,4.44,-0.455,-0.206,-1.81
CS(=O)(=O)OCCCCOS(C)(=O)=O [Busulfan],-0.216,0.964,0.851,2.14
COC(=O)N[C@H](C(=O)N[C@@H](Cc1ccccc1)[C@@H](O)CN(Cc1ccc(-c2ccccn2)cc1)NC(=O)[C@@H](NC(=O)OC)C(C)(C)C)C(C)(C)C [Atazanavir],-0.0159,0.146,0.0671,-0.174

# Part of the list above in another layout:
Structure (SMILES) | nucleus area z-score [1] | total neurite length per nucleus (z-score) [2] | nucleus roundness z-score [3] | KCl-induced FOS+/EGR-1+ double-positive nuclei fraction z-score [4]
c1ccc(-c2ccc(C(c3ccccc3)n3ccnc3)cc2)cc1 (centres undefined) [Bifonazole] | -0.721 | -1.02 | -1.62 | 1.43
O=C(Nc1c[nH]nc1-c1nc2ccc(CN3CCOCC3)cc2[nH]1)NC1CC1 | 4.44 | -0.455 | -0.206 | -1.81
